Source: article PMC11198909

Test system: Dorsal-His (Sogatella furcifera)
Assay: EMSA
Conditions: 5 mM Mg2+, poly(dI-dC) 10 ug, 10 mM Tris-HCl pH 7.5, 0.25 mM DTT, 5 mM MgCl2, 10 mM KCl, probe 20 fmol, Dorsal-His 100 ug, 4 C 30 min, 5% native PAGE, recombinant protein, protein details: His (pEASY-Blunt E1), label: Cy5

## ACTGGAATTACCCGGGAAATGAGATTTTCCAG (double strand) [defensin-Cy5-probe]
  binding result: binds

For at least one entry, the source does not settle the construct or the ends of the probe.
